Laboratory results: patent US9604973B2, “Anti-cancer polyketide compounds” (priority 2012, dated 2017)
For at least one compound, name, drawing or mass did not settle the structure. Some of these results come from one statement about several compounds together.

Legend:
CLL cells = assay: Flow cytometry, % specific induced apoptosis (DiOC6/PI) in primary CLL cells; type: cell-based, human; settings: for IC50 / apoptosis (% SIA): 48 hours
Description: (§1) FIG. 20A-20C: FD-895 and PLAD induce apoptosis in CLL cells but not in normal lymphocytes with a TP53 independent activity: Primary leukemia B cells from CLL (FIG. 20A) patient with del (17p) and Tp53 mutation, (FIG. 20B) patient with wild type p53 and sensitive to F-Ara-A and (FIG. 20C) normal lymphocytes from healthy donor were incubated with FD-895, PLAD and F-Ara-A (0, 10, 100, 1000 10,000 nM) for 48 hours.
(§2) FIG. 21: FD-895 and PLAD induce apoptosis in CLL cells not ONLY independently of Tp53 but also independently of SF3B1 mutational status: Primary leukemia B cells from CLL patient with SF3B1 wild, SF3B1 mutation, 17p DEL and normal B and T lymphocytes from healthy donor were incubated with FD-895 and PLAD with 100 nM for 48 hours. After incubation, the samples were harvested and % SIA was measured by flow cytometry as described above. […] Each dots represents number of CLL patient sample and normal B or T cells.
Peripheral blood mononuclear cells (PBMC) from patients with CLL were obtained from the CLL Research Consortium (CRC) tissue bank. The blood samples were collected after obtaining a written informed consent from the patients under a protocol approved by the institutional review board of The University of California, San Diego. All patients met criteria for CLL.^1 CLL B cells and PBMCs were separated from heparinized venous blood of the B-CLL patients by density gradient centrifugation using Ficoll-Hypaque (GE healthcare) as described earlier.^2 The samples that were used had more than 95% positive cells for CD19 and CD5+, as assessed by flow cytometry. CLL B cells were maintained in RPMI 1640 medium supplemented with 10% FBS, 2 mM L-glutamine, and 100 U/mL of penicillin and 100 μg/mL of streptomycin at 37° C. in an atmosphere of 5% CO2.
(§3) Apoptotic and viable cells were discriminated via flow cytometry of cells stained with 3,3′ dihexyloxacarbocyanine iodide (DiOC6) (Molecular Probes, Eugene, Oreg., USA) and propidium iodine (Sigma, St Louis, Mo., USA), as described.^3 Using this method viable cells exclude PI and stain brightly positive for DiOC6.

DNAJB1 [1] = assay: RT-PCR of spliced and unspliced mRNA (intron retention) in CLL cells; type: cell-based, human
Description: (§4) FIG. 23: FD-895 and PLAD induced inhibition of splicing in CLL: RT-PCR for analysis of spliced and unspliced mRNAs. CLL cells treated with FD-895, PLAD (10, 100 nM), chemotherapeutic agent like bendamustine (33, 100 μM) and F-Ara-A (3, 10, 33 μM) for 4 hours. RT-PCR for DNAJB1 was performed with primers spanning two exons; products were analyzed on ethidium bromide-stained agarose gels (2%) to visualize the correct size of the unspliced mRNAs. […] The exon structure of DNAJB1 gene is indicated. G, human genomic DNA was used as a control; U, unspliced mRNA; S, spliced mRNA.
(§5) CLL cells were treated with 10 and 100 nM of FD-895 and PLAD, 33 and 100 μM of bendamustine and 3, 10, and 33 μM of F-Ara-A for 4 h. Normal B and CLL cells were treated with 100 nM of FD-895 and PLAD and 10 μM of F-Ara-A for 15 minutes, 30 minutes, 1, 2 and 4 h. Total RNA was extracted using mirVana™ miRNA isolation kit (Ambion Life Technology, USA). After DNase treatment, 200 ng total RNA was reverse-transcribed using a SuperScript™ III first-strand synthesis system (Invitrogen). PCR was performed on 10 ng of the obtained cDNA (or human genomic DNA as a control) in 25 μl of reaction mixture containing Plantinum® PCR SuperMix High-fidelity (Invitrogen Life Technology, USA), and 0.1 μM of each primer of the appropriate pair. […]

RIOK3 = assay: as above; type: cell-based, human; settings: 100 nM
[2] = cited from earlier work
[3] = test system: normal B lymphocytes from healthy donor; assay: Flow cytometry, % specific induced apoptosis in normal B lymphocytes; type: cell-based, human; settings: B cells from healthy donors, 0-10,000 nM, 48 hours
Description: as §1, §2
Normal B cells were purified from buffy coats of healthy volunteers, obtained from San Diego blood bank. Positive isolation with Dynabeads® CD19 pan B and DETACHaBEAD CD19 (Invitrogen Life Technologies, USA) were used to achieve more than 95% purity by flow cytometry analysis. […]

JURKAT = assay: Flow cytometry cell viability/% SIA in leukemia cell line; type: cell-based, human; settings: 0-10,000 nM, 48 hours
Description: (§6) FIG. 22: Activity of FD-895, PLAD and F-Ara-A in different human leukemia cell lines: Different leukemia cell lines including MEC1, RAJI and JURKAT were incubated with FD-895, PLAD and F-Ara-A (0, 10, 100, 1000, 10,000 nM) for 48 hours. The samples were harvested and cell viability was measured by flow cytometry using propidium iodine (PI) exclusion and mitochondrial membrane potential changes using DiOC6. This experiments was performed 2 times independently.
(§7) The leukemia cell lines, MEC1, RAJI and JURKAT were maintained in CLL B cells were maintained in RPMI 1640 medium supplemented with 10% FBS, 2 mM L-glutamine, and 100 U/mL of penicillin and 100 μg/mL of streptomycin at 37° C. in an atmosphere of 5% CO2.
as §3
(§8) We further examined the activity of FD-895, PLAD and F-Ara-A in different leukemia cell lines like MEC1 (B chronic lymphocytic leukemia cell line), RAJI (B lymphocyte cell line), JURKAT (T lymphocyte cell line) as to know whether these compounds induce apoptosis or not. We incubated cells with FD-895, PLAD and F-Ara-A with 0, 10, 100, 1000 or 10,000 nM for 48 hours and measured the % SIA by using flow cytometry.

MEC1 = assay: as above; type: cell-based, human; settings: MEC1, 0-10,000 nM, 48 hours
Description: as §6, §7, §3, §8

RAJI = assay: as above; type: cell-based, human; settings: 0-10,000 nM, 48 hours
Description: as §6, §7, §3, §8

GAPDH = assay: RT-PCR of spliced and unspliced mRNA (intron retention) in CLL cells, housekeeping gene; type: cell-based, human; settings: 4 hours, same concentrations
Description: as §4, §5

DNAJB1 [4] = assay: Quantitative RT-PCR of unspliced mRNA in CLL cells; type: cell-based, human; settings: FD-895, PLAD 100 nM, F-Ara-A 10 μM, 15 min, 1 and 4 hours
Description: FIG. 24: Time-dependent increase of unspliced mRNA by FD-895 and PLAD in CLL: CLL cells were treated with 100 nM of FD-895 and PLAD and 10 μM of F-Ara-A for 15 min, 1 and 4 hours. Quantitative RT-PCR using primers specific for each intron quantified unspliced mRNA for DNAJB1. GAPDH was used for normalization. […] Error bars indicate S.D.
Quantitative RT-PCR using primers specific for each intron quantified unspliced mRNA for DNAJB1 (FIG. 25A) and RIOK3 (FIG. 25B). GAPDH was used for normalization. […] Error bars indicate S.D.
CLL cells were treated with 100 nM of FD-895 and PLAD and 10 μM of F-Ara-A for 15 minutes, 1 and 4 h. Normal B and CLL cells were treated with 10, 100, and 1000 nM of FD-895 and PLAD and 10 μM of F-Ara-A for 4 h.
Extraction of total RNA and cDNA synthesis were performed as described earlier. Unspliced mRNA was quantified using a 7900HT fast Real Time PCR System (Applied Biosystems). The amounts of unspliced mRNA of DNAJB1, and RIOK3 were determined by SYBR green (Power SYBR Green PCR Master Mix, Applied Biosystems) real-time quantitative RT-PCR using specific primers designed for the intron of each gene (see additional information section at the end).
PCR using 0.2 μM of each primer was performed on 20 ng of the obtained cDNA. […] The mRNA levels were calculated using 2^−ΔΔCT method.^4 GAPDH was used as a control for normalization.

Structure (SMILES)	incubation period to apoptosis in CLL cells (CLL cells; 100 nM, harvested 0-48 hours) [h]	IC50 (CLL cells; CLL cells from patient with del (17p) and Tp53 mutation) [nM]	IC50 (CLL cells; CLL cells from patient with wild type p53 and sensitive to F-Ara-A) [nM]	time of treatment to splicing impairment of DNAJB1 (DNAJB1 [1]; 100 nM) [min]	time of treatment to splicing impairment of RIOK3 (RIOK3) [min]	hydrolytic stability as reported [2]	apoptosis (% SIA) (CLL cells; CLL patients with Tp53 mutation (so in the source))	apoptosis (% SIA) (CLL cells; CLL patients with del (17p), 0-10,000 nM)	apoptosis (% SIA) [3]	cell death (% SIA) (JURKAT)	cell death (% SIA) (MEC1)	cell death (% SIA) (RAJI)	intron retention/splicing inhibition of DNAJB1 (DNAJB1 [1]; 4 hours, FD-895, PLAD 10, 100 nM, bendamustine 33, 100 μM, F-Ara-A 3, 10, 33 μM)	splicing inhibition of housekeeping gene GAPDH (GAPDH)	unspliced mRNA of DNAJB1 over time (DNAJB1 [4])
CCC(OC)C(C)C1OC1C(O)C(C)/C=C/C=C(\C)C1OC(=O)CC(O)CCC(C)(O)C(OC(C)=O)/C=C/C1C (stereo not drawn) [FD-895]	≤ 2	10 to 50	< 3	≤ 15	≤ 15	hydrolytic instability	–	–	–	–	–	–	–	–	–
Nc1nc(F)nc2c1ncn2[C@@H]1O[C@H](COP(=O)(O)O)[C@@H](O)[C@@H]1O [F-Ara-A, Fludarabine phosphate]	–	–	–	–	–	–	significant death	resistance	did not induce significant apoptosis	did not show significant % of cell death	did not show significant % of cell death	significant cell death	did not show intron retention/splicing inhibition	Neither FD-895, PLAD nor chemotherapy agents showed splicing inhibition	did not show increase in unspliced mRNA
